According to article doi:10.1101/2022.03.02.482703:
Read-outs that look alike come from different tables or passages of the source. These are yes or no findings as the source states them, for the method shown. Binding seen in cells or lysates may run through a third protein. Some entries that bind do so weakly or less than the wild type.

Amino acid sequences for entries named in this document (tags omitted). A change or cut given only in a name is not applied to a line headed by its entry.
UniProt P49023: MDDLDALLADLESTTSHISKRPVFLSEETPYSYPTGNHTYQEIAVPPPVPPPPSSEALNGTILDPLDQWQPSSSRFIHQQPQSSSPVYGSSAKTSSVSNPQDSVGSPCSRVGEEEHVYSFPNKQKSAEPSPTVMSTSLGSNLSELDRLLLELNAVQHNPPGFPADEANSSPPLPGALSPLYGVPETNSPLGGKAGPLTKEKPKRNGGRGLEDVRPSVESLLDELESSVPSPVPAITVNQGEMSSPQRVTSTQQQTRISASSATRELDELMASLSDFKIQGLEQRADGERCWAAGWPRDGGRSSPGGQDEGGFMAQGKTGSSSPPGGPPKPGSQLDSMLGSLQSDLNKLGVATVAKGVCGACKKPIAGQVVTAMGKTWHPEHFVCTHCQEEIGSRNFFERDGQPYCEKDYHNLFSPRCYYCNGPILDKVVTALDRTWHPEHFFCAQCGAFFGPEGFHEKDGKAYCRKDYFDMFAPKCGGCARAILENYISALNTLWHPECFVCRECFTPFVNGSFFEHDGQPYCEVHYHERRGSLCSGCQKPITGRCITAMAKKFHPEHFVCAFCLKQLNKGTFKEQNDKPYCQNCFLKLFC

Experiments:
Experiment in all cases: co-IP
[1] = target: non-phosphorylatable human Y118F-Paxillin (Y118F-Paxillin-T2A-GFP) (human) (UniProt P49023)
[2] = target: wildtype human Paxillin (WT-Paxillin-T2A-GFP) (human) (UniProt P49023)
[3] = target: non-phosphorylatable human Y118F-Paxillin (Y118F-Paxillin-T2A-GFP) (human) (UniProt P49023); remark: listed apart in the source
[4] = target: phosphomimetic human Y118E-Paxillin (Y118E-Paxillin-T2A-GFP) (human) (UniProt P49023)
[5] = target: wildtype human Paxillin (WT-Paxillin-T2A-GFP) (human) (UniProt P49023); remark: listed apart in the source
[6] = target: phosphomimetic human Y118E-Paxillin (Y118E-Paxillin-T2A-GFP) (human) (UniProt P49023); remark: listed apart in the source
[7] = target: wildtype human Paxillin (WT-Paxillin-T2A-GFP) (human) (UniProt P49023); remark: listed apart in the source

Measured: binding

CRKII (from UniProt Q64010-1 1-304)
not listed: [6] | [7]
binds: all other assays above

B1: Vinculin (protein, UniProt Q64727 1-1066)
chain: MPVFHTRTIESILEPVAQQISHLVIMHEEGEVDGKAIPDLTAPVAAVQAAVSNLVRVGKETVQTTEDQILKRDMPPAFIKVENACTKLVQAAQMLQSDPYSVPARDYLIDGSRGILSGTSDLLLTFDEAEVRKIIRVCKGILEYLTVAEVVETMEDLVTYTKNLGPGMTKMAKMIDERQQELTHQEHRVMLVNSMNTVKELLPVLISAMKIFVTTKNSKNQGIEEALKNRNFTVEKMSAEINEIIRVLQLTSWDEDAWASKDTEAMKRALASIDSKLNQAKGWLRDPNASPGDAGEQAIRQILDEAGKVGELCAGKERREILGTCKMLGQMTDQVADLRARGQGASPVAMQKAQQVSQGLDVLTAKVENAARKLEAMTNSKQSIAKKIDAAQNWLADPNGGPEGEEQIRGALAEARKIAELCDDPKERDDILRSLGEIAALTSKLGDLRRQGKGDSPEARALAKQVATALQNLQTKTNRAVANSRPAKAAVHLEGKIEQAQRWIDNPTVDDRGVGQAAIRGLVAEGHRLANVMMGPYRQDLLAKCDRVDQLTAQLADLAARGEGESPQARALASQLQDSLKDLKAQMQEAMTQEVSDVFSDTTTPIKLLAVAATAPPDAPNREEVFDERAANFENHSGRLGATAEKAAAVGTANKSTVEGIQASVKTARELTPQVISAARILLRNPGNQAAYEHFETMKNQWIDNVEKMTGLVDEAIDTKSLLDASEEAIKKDLDKCKVAMANIQPQMLVAGATSIARRANRILLVAKREVENSEDPKFREAVKAASDELSKTISPMVMDAKAVAGNISDPGLQKSFLDSGYRILGAVAKVREAFQPQEPDFPPPPPDLEQLRLTDELAPPKPPLPEGEVPPPRPPPPEEKDEEFPEQKAGEVINQPMMMAARQLHDEARKWSSKGNDIIAAAKRMALLMAEMSRLVRGGSGTKRALIQCAKDIAKASDEVTRLAKEVAKQCTDKRIRTNLLQVCERIPTISTQLKILSTVKATMLGRTNISDEESEQATEMLVHNAQNLMQSVKETVREAEAASIKIRTDAGFTLRWVRKTPWYQ
binds: [1] | [6] | [7]
